Values quoted from earlier work as cited in patent US12447147B2, “Methods of treating, ameliorating, and/or preventing cancer using pyrvinium compositions” (Thomas Jefferson University, priority 2019, dated 2025).

Details: oral tablets or suspensions; blood up to 4 days after each dose; cited from earlier work

Cc1cc(/C=C/c2ccc3cc(N(C)C)ccc3[n+]2C)c(C)n1-c1ccccc1 [PP, pyrvinium pamoate]
absorption indicated by plasma specimens: no indication of any absorption
